Assay results from PubChem BioAssay AID1487 (National Center for Advancing Translational Sciences (NCATS), 2009).
The other results are listed elsewhere or left out. These are further read-outs of the screen, such as a control signal, another cell line or another target. No call is given for them. Most of these compounds were active or inconclusive in the main read-out, so they are no random draw. Words in brackets tell the shape of the fitted curve; partial curves, single points and poor fits give uncertain potencies.

Assay: qHTS Assay for Modulators of Lamin A Splicing
Conditions: HeLa LMNA splicing GFP/RFP minigene ratio, 48 h
Text: NCGC Assay Overview: Hutchinson-Gilford Progeria Syndrome (HGPS) is a pediatric premature aging disease caused by a spontaneous mutation in the lamin A/C (LMNA) gene. The mutation activates a cryptic splice site in the LMNA pre-mRNA which results in production of a pre-lamin A protein that cannot be processed properly. The mutant protein accumulates in the nucleus and negatively affects numerous cellular functions. Correction of the splicing defect in HGPS patient cells using a targeted oligonucleotide (exo11) leads to reversal of the cellular disease phenotypes. To identify small molecule modulators of aberrant LMNA splicing, a homogenous assay was constructed in HeLa cells that used a GFP containing minigene to report on correction of aberrant splicing in lamin A and a RFP (DsRed2) to report on cell viability, uniformity and nonspecific effects on the assay signal. This assay was adapted to laser-scanning microplate cytometry (Acumen, TTP Labtech) where miniaturization of the assay to a 1,536-well plate format was possible. References: Bowen, W. P.; Wylie, P. G. Application of Laser-Scanning Fluorescence Microplate Cytometry in High Content Screening. Assay Drug Dev Technol 2006;4:209-221. Scaffidi P, Misteli T. Reversal of the cellular phenotype in the premature aging disease Hutchinson-Gilford progeria syndrome. Nat.
NCGC Assay Protocol Summary: Reagents/Controls: Stable clones expressing DsRed2 and lamin A-EGFP were generated by Cell and Molecular Technologies in S3 HeLa cells. HeLa cells were prepared for the assay when they were 70-90% confluent. The cells were counted and resuspended in Opti-MEM I (no phenol red; Gibco), 2% FBS, 1% penicillin/ streptomycin (Gibco) at concentration of 120 cells/uL concentration. The suspension was passed through a Falcon basket filter with pore size 40um (Beckton Dickson). Control titrations: column […] 1536-well plate contained a sixteen point titration (1:2 dilutions) in duplicate of ancitabine (Sigma: A8598) beginning at 40 uM final concentration. Column 2 contained a sixteen point titration (1:2 dilutions) of cycloheximide beginning at 1.4 mM final concentration. Column 3 contained ancitabine at 40 uM and column 4 contained was the vehicle control (0.5% DMSO final concentration). Assay Steps: 5 uL of HeLa cells were plated in Aurora LoBase black clear bottom (cyclic-olefin polymer) 1536-well plates at a final density of 600 cells/well. Controls and library compounds were added with a 1536-well pin array using the Kalypsys pin-tool. The plates were then incubated for 48 hrs in a cell-culture incubator (37 °C; 5% CO2, 98% humidity). Following incubation the plates were read on the Acumen Explorer using the 488 nm laser. Data was collected on objects between 10 and 100 um in size. Cell objects were defined by a 15 um width x 10 um depth filter. The ratio of the total object intensity in PMT1 (500-530 nm emission; GFP) over PMT3 (575-640 nm emission; RFP) was calculated for analysis. Keywords: NIH Roadmap, MLSCN, MLI, MLSMR, qHTS, NCGC, lamin A, Progeria, RNA splicing.

[1] = measured here: GFP splicing reporter channel
[2] = measured here: RFP viability control channel

Row | SMILES | AC50 [1] | AC50 [2]
1 | O=C(O)c1ccccc1C(=O)NCC(O)c1ccccc1 (configuration not stated) | 3.55 µM [falling, partial curve, poor fit] | 
2 | CC(=O)c1c(C)[nH]c(C(=O)OCC(=O)Nc2cc(S(=O)(=O)N3CCCCC3)ccc2C)c1C |  | 12.6 µM [rising, partial curve]
3 | CCOC(=O)c1ccc(N2CCN(c3cc(Cl)ccc3C)CC2)c(NC(=O)Nc2ccc(OCC)cc2)c1 | 20 µM [rising, single point] | 35.5 µM [rising, single point]
4 | CCC(Oc1ccccc1)C(=O)N1CCN(Cc2cc(=O)n3nc(-c4cccc(C)c4)sc3n2)CC1 (configuration not stated) | 15.8 µM [falling, single point] | 11.2 µM [falling, partial curve]
5 | COc1ccc(-c2cc(-c3cc(OC)ccc3O)[nH]n2)cc1 | 7.08 µM [rising, partial curve, poor fit] | 10 µM [rising, single point]
6 | O=C(NCCC1=CCCCC1)NC12CC3CC(CC(C3)C1)C2 |  | 17.8 µM [rising, single point]
7 | Cn1c(CCN2CCN(c3ccc(F)cc3)CC2)nc2cc(NC(=O)c3ccco3)ccc21 | 0.631 µM [rising, partial curve, poor fit] | 12.6 µM [rising, partial curve]
8 | CC(C)OC(=O)CC12CN3CN(C1)CC(CC(=O)OC(C)C)(C3)C2=O | 3.55 µM [rising, single point] | 
9 | CC(=O)c1oc2ccccc2c1NC(=O)CN1CCCCC1 |  | 35.5 µM [rising, single point]
10 | NC(=O)NCC(=O)N1CCC(C(O)(c2ccccc2)c2ccccc2)CC1 |  | 4.47 µM [falling, full curve, poor fit]
11 | c1ccc(-n2ncc3c2ncn2nc(CSc4nc5ccccc5s4)nc32)cc1 |  | 5.62 µM [rising, single point]
12 | [O]=[Bi][O][Bi]=[O] |  | 3.16 µM [rising, partial curve, poor fit]
13 | CCN(Cc1cnn(C)c1)Cc1nc(Cc2ccccc2Cl)no1 |  | 5.01 µM [falling, full curve, poor fit]
14 | CSc1nc(N)c(C(=O)Nc2ccc([N+](=O)[O-])cc2)s1 | 3.16 µM [falling, partial curve, poor fit] | 
15 | COc1cc(-n2nnnc2SCC(=O)N2CCN(c3ccc(F)cc3)CC2)c(OC)cc1Cl |  | 35.5 µM [rising, single point]
16 | COc1cccc(C2NC(=O)c3ccccc3O2)c1OC (configuration not stated) |  | 35.5 µM [rising, single point]
17 | COc1cccc(-c2nc(-c3ccccc3)nc(N3CCN(C)CC3)c2C#N)c1 |  | 14.1 µM [rising, single point]
18 | COc1ccc(CCNC(=O)c2cccnc2)cc1OC | 20 µM [rising, partial curve, poor fit] | 
19 | CC(C)(C)n1nnnc1CN1CCN(C(c2ccccc2)c2ccccc2)CC1 |  | 14.1 µM [rising, single point]

Row | SMILES | AC50 [1] | AC50 [2]
20 | COc1ccc(CCN2C(=O)c3[nH]nc(-c4ccccc4O)c3C2c2cccc(Cl)c2)cc1 (configuration not stated) | 11.2 µM [falling, partial curve] | 12.6 µM [falling, partial curve]
21 | O=C(COc1ccccc1F)Nc1nnc(SCc2cc(=O)c3ccccc3[nH]2)s1 | 0.501 µM [rising, full curve, poor fit] | 
22 | C=CCc1c(C)nc2nc(SCC(=O)Nc3ccc(C)c(C)c3)nn2c1C | 35.5 µM [falling, single point] | 25.1 µM [falling, partial curve, poor fit]
23 | O=[N+]([O-])c1ccc(S(=O)(=O)N2CCSC2c2ccco2)cc1 (configuration not stated) | 0.2 µM [rising, full curve] | 
24 | O=C(CSc1nc2ncc(Cl)cc2[nH]1)NC1CCS(=O)(=O)C1 (configuration not stated) |  | 2.82 µM [falling, full curve]
25 | CSCC[C@H](NC(=O)COc1ccc(Cl)cc1Cl)c1nc2ccccc2[nH]1 |  | 22.4 µM [rising, single point]
26 | Cc1cc(F)ccc1S(=O)(=O)N1CCCOC1CNC(=O)C(=O)NCCC1=CCCCC1 (configuration not stated) | 0.794 µM [rising, partial curve, poor fit] | 
27 | COCC(C)n1c(C)cc(C(=O)CSc2nnnn2-c2ccc(O)cc2)c1C (configuration not stated) | 0.0224 µM [falling, full curve, poor fit] | 
28 | CC(C)(C)c1ccc(CNc2cc(N3CCOCC3)ccc2[N+](=O)[O-])cc1 | 11.2 µM [rising, partial curve, poor fit] | 31.6 µM [rising, single point]
29 | CCC1CCCCN1C(=O)CSc1nnc(-c2ccc3c(c2)OCCO3)o1 (configuration not stated) |  | 15.8 µM [rising, single point]
30 | O=c1c2c(nc3c(-c4ccccc4)c[nH]n13)CCC2 | 17.8 µM [falling, single point] | 
31 | COc1ccc(C2C(C#N)=C(N)N(Nc3ccccc3)C3=C2C(=O)CC(C)(C)C3)cc1C (configuration not stated) | 35.5 µM [falling, single point] | 12.6 µM [falling, partial curve]
32 | O=C(Oc1ccc(-c2ccccc2)cc1)N1CCCCC1 | 35.5 µM [rising, single point] | 31.6 µM [rising, single point]
33 | CCOc1ccc(S(=O)(=O)n2cc(-c3ccc(F)cc3)c(N)n2)cc1 |  | 35.5 µM [rising, single point]
34 | COc1ccc(CCNC(=O)c2cnn(-c3ccc(F)cc3)c2C2CCN(C(=O)OC(C)(C)C)CC2)c(OC)c1 | 35.5 µM [falling, single point] | 
35 | Cc1c(NC(=O)CSc2nnc3c4ccccc4n(CCc4ccccc4)c3n2)c(=O)n(-c2ccccc2)n1C | 6.31 µM [falling, partial curve] | 35.5 µM [falling, single point]
36 | CCOc1ccc(C2=NNC(c3cccs3)=Nc3ccc(OC)cc32)cc1 |  | 15.8 µM [rising, partial curve, poor fit]
37 | CCCCOc1ccc(S(=O)(=O)NNC(=O)c2cc3ccccc3o2)cc1 |  | 10 µM [rising, single point]
38 | CCN(CC)S(=O)(=O)c1ccc2c(c1)C(=NO)c1cc(S(=O)(=O)N(CC)CC)ccc1-2 | 1.41 µM [rising, partial curve] | 

Row | SMILES | AC50 [1] | AC50 [2]
39 | Cc1cc(C)cc(-n2c(N)c(C(=O)Nc3c(C)n(C)n(-c4ccccc4)c3=O)c3nc4ccccc4nc32)c1 |  | 35.5 µM [rising, single point]
40 | Cc1ccc2nc(-c3ccc(NS(=O)(=O)c4ccc(F)c(F)c4)cc3)sc2c1 |  | 35.5 µM [rising, single point]
41 | O=C(NCCC1=CCCCC1)c1ccc2c(=O)n3nc(Nc4ccccc4)sc3nc2c1 | 15.8 µM [falling, single point] | 17.8 µM [falling, partial curve, poor fit]
42 | CCCn1c(=O)c(C(=O)NCc2ccccn2)c(O)c2ccccc21 |  | 17.8 µM [rising, single point]
43 | Cc1ccc(C(=O)Nc2nc(COc3ccccc3)cs2)s1 | 6.31 µM [rising, full curve] | 8.91 µM [rising, partial curve]
44 | CCOc1cc(CNc2ccc(N3CCN(C(C)=O)CC3)cc2)cc(Br)c1OC |  | 25.1 µM [rising, single point]
45 | Cc1cccc(-n2ncc3c(NCCCO)ncnc32)c1 |  | 0.0316 µM [rising, full curve, poor fit]
46 | CCOC(=O)c1c(-c2ccccc2)csc1NC(=O)c1nn(CC)cc1Br | 10 µM [rising, partial curve, poor fit] | 35.5 µM [rising, single point]
47 | Cc1[nH]c2ccc(-c3n[nH]c(=S)n3-c3ccccc3)cc2c1C | 35.5 µM [rising, single point] | 
48 | CCOC(=O)/C(=C\C=C1/Sc2cc(OCC)c(OCC)cc2N1CC)C(C)=O | 8.91 µM [falling, partial curve] | 7.08 µM [falling, partial curve]
49 | COc1ccc(S(=O)(=O)N2CCN(c3ccccc3OC)CC2)cc1OC |  | 31.6 µM [rising, single point]
50 | COc1ccccc1NC(=S)N(Cc1ccco1)Cc1cc2cc(C)cc(C)c2[nH]c1=O |  | 10 µM [rising, partial curve]
51 | Fc1ccc(NC(=S)NC2CCCCC2)c(F)c1F |  | 14.1 µM [rising, single point]
52 | O=C(NC(Cc1c[nH]c2ccccc12)C(=O)N/N=C/c1ccc(Cl)cc1)c1cccs1 (configuration not stated) | 0.00355 µM [falling, full curve, poor fit] | 
53 | O=C(NNc1cc(N2CCOCC2)nc(N2CCOCC2)n1)c1ccc([N+](=O)[O-])cc1 |  | 2.82 µM [falling, partial curve, poor fit]
54 | Cc1cccc(N2CCN(C(=O)Cc3ccc(-n4c(=O)[nH]c5ccsc5c4=O)cc3)CC2)c1C |  | 12.6 µM [rising, single point]
55 | Cc1ccccc1OCC(=O)Nc1ccc2nc(SCc3ccccc3)sc2c1 | 1.58 µM [rising, full curve] | 
56 | Cc1nn(-c2ccccc2)c2sc(-c3n[nH]c(=S)o3)cc12 |  | 11.2 µM [rising, partial curve]
57 | COc1nc(Nc2cccc(C)c2)nc(N2CCCCC2)n1 | 3.55 µM [rising, partial curve, poor fit] | 11.2 µM [rising, partial curve]

Random excerpt: 2 entries already listed
Row | SMILES | AC50 [1] | AC50 [2]
47 | Cc1[nH]c2ccc(-c3n[nH]c(=S)n3-c3ccccc3)cc2c1C | 35.5 µM [rising, single point] | 
39 | Cc1cc(C)cc(-n2c(N)c(C(=O)Nc3c(C)n(C)n(-c4ccccc4)c3=O)c3nc4ccccc4nc32)c1 |  | 35.5 µM [rising, single point]
